Measurements reported in PubChem BioAssay AID1259405 (NCATS, 2018).
Shown is an unselected part of about 50,000 reagents. Of all reagents, about 4,000 (8%) got an active call. 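Mouse siRNA library applied to hamster cells; one well for each siRNA.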 The numbers tell different reagents against one gene apart.

Aim: 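Silenced genes that increase secreted GFP made by CHO cells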 (primary screen)
System: Chinese hamster CHO-K1 ovary cells with stable secreted eGFP expression
Reagents: single siRNA against mouse genes, 0.8 pmol siRNA per well (2 µl of 400 nM stock)
Timing: 3 days
Measurement: 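Percent of the per-plate non-targeting control median for intracellular GFP per well by laser scanning cytometry and for cell viability by ATP luminescence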
Reading the numbers: GFP, % of control: higher = more GFP per well, higher productivity; viability (ATP), % of control: higher = more viable cells (more ATP)
Call rule: 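a knock-down is called active if GFP reaches 120% or more of non-targeting control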

| gene | reagent | GFP, % of control | viability (ATP), % of control | Outcome |
| --- | --- | --- | --- | --- |
| Mchr1 | 1 | 42.4 | 27.9 | inactive |
| Mchr1 | 2 | 73 | 77.4 | inactive |
| Mchr1 | 3 | 108 | 82.7 | inactive |
| Rin3 | 1 | 94.4 | 71.2 | inactive |
| Rin3 | 2 | 86.1 | 97.1 | inactive |
| Rin3 | 3 | 45.8 | 44.4 | inactive |
| Zdhhc25 | 1 | 52.6 | 54.2 | inactive |
| Zdhhc25 | 2 | 60.5 | 34.1 | inactive |
| Zdhhc25 | 3 | 23 | 68.6 | inactive |
| Or6c75 | 1 | 107 | 83.1 | inactive |
| Or6c75 | 2 | 37.6 | 38.5 | inactive |
| Or6c75 | 3 | 98 | 0.829 | inactive |
| Bpifa5 | 1 | 131 | 107 | active |
| Bpifa5 | 2 | 96.7 | 72.2 | inactive |
| Bpifa5 | 3 | 102 | 96.2 | inactive |
| Mobp | 1 | 39.6 | 43.9 | inactive |
| Mobp | 2 | 79.6 | 79.8 | inactive |
| Mobp | 3 | 79.6 | 59.6 | inactive |
| Bcl9 | 1 | 101 | 70.3 | inactive |
| Bcl9 | 2 | 92.8 | 104 | inactive |
| Bcl9 | 3 | 76 | 70.7 | inactive |
| Epb41l4a | 1 | 69.7 | 85 | inactive |
| Epb41l4a | 2 | 25.4 | 18 | inactive |
| Epb41l4a | 3 | 86.8 | 86.5 | inactive |
| Serinc3 | 1 | 125 | 86.3 | active |
| Serinc3 | 2 | 60.9 | 82.4 | inactive |
| Serinc3 | 3 | 63.5 | 66 | inactive |
| Golga2 | 1 | 64.4 | 63.1 | inactive |
| Golga2 | 2 | 76.8 | 84.7 | inactive |
| Or8b101 | 1 | 109 | 85.8 | inactive |
| Or8b101 | 2 | 67.7 | 65.5 | inactive |
| Or8b101 | 3 | 91.9 | 0.74 | inactive |
| Ncdn | 1 | 138 | 106 | active |
| Ncdn | 2 | 87.4 | 50.2 | inactive |
| Ncdn | 3 | 34.7 | 56.5 | inactive |
| Tek | 1 | 79.7 | 56.7 | inactive |
| Tek | 2 | 87.7 | 69.8 | inactive |
| Tek | 3 | 63.2 | 52.9 | inactive |
| Eif2s3y | 1 | 89.1 | 47.2 | inactive |
| Eif2s3y | 2 | 181 | 59.1 | active |
| Eif2s3y | 3 | 67.1 | 43.9 | inactive |
| Cpsf2 | 1 | 177 | 91.9 | active |
| Cpsf2 | 2 | 178 | 125 | active |
| Cpsf2 | 3 | 68.8 | 42.6 | inactive |
| Cpsf2 | 4 | 82.4 | 83.3 | inactive |
| Cpsf2 | 5 | 96.2 | 89.3 | inactive |
| Cpsf2 | 6 | 86.9 | 73.4 | inactive |
| Plcz1 | 1 | 50 | 73.9 | inactive |
| Plcz1 | 2 | 121 | 130 | active |
| Plcz1 | 3 | 39.6 | 22.6 | inactive |
| Srd5a2 | 1 | 74.3 | 100 | inactive |
| Srd5a2 | 2 | 82.7 | 48.4 | inactive |
| Srd5a2 | 3 | 93.4 | 101 | inactive |
| Ssh3 | 1 | 95.8 | 50.5 | inactive |
| Ssh3 | 2 | 85.1 | 65.4 | inactive |
| Ssh3 | 3 | 100 | 68.4 | inactive |
| Polg | 1 | 59.7 | 59.4 | inactive |
| Polg | 2 | 68.2 | 51.1 | inactive |
| Polg | 3 | 86.4 | 89 | inactive |
| Tnfrsf4 | 1 | 67.2 | 78.7 | inactive |
| Tnfrsf4 | 2 | 61.5 | 71.5 | inactive |
| Tnfrsf4 | 3 | 66.1 | 57 | inactive |
| Gtf2e2 | 1 | 70.6 | 82.9 | inactive |
| Gtf2e2 | 2 | 106 | 85.5 | inactive |
| Gtf2e2 | 3 | 101 | 65.2 | inactive |

Entries listed above marked active, once more:
| gene | reagent | GFP, % of control | viability (ATP), % of control | Outcome |
| --- | --- | --- | --- | --- |
| Bpifa5 | 1 | 131 | 107 | active |
| Serinc3 | 1 | 125 | 86.3 | active |
| Ncdn | 1 | 138 | 106 | active |
| Eif2s3y | 2 | 181 | 59.1 | active |
| Cpsf2 | 1 | 177 | 91.9 | active |
| Cpsf2 | 2 | 178 | 125 | active |
| Plcz1 | 2 | 121 | 130 | active |

The list goes on:
| gene | reagent | GFP, % of control | viability (ATP), % of control | Outcome |
| --- | --- | --- | --- | --- |
| Foxc2 | 1 | 67.3 | 102 | inactive |
| Foxc2 | 2 | 86.6 | 90.8 | inactive |
| Rbm8a | 1 | 91.2 | 41.1 | inactive |
| Rbm8a | 2 | 71.5 | 44.8 | inactive |
| Fpgs | 1 | 118 | 73.2 | inactive |
| Fpgs | 2 | 87.5 | 79.2 | inactive |
| Fpgs | 3 | 61.8 | 52.9 | inactive |
| Asap3 | 1 | 90.3 | 95.2 | inactive |
| Asap3 | 2 | 79.5 | 86.9 | inactive |
| Asap3 | 3 | 69.5 | 72.1 | inactive |
| Chrnb4 | 1 | 30.1 | 32.2 | inactive |
| Chrnb4 | 2 | 76.3 | 52.6 | inactive |
| Chrnb4 | 3 | 59.3 | 59.9 | inactive |
| AY074887 | 1 | 63.9 | 71.3 | inactive |
| AY074887 | 2 | 101 | 82.6 | inactive |
| AY074887 | 3 | 78.6 | 68.1 | inactive |
| Psph | 1 | 110 | 105 | inactive |
| Psph | 2 | 30.8 | 25 | inactive |
| Psph | 3 | 73 | 75.6 | inactive |
| Or2ag1b | 1 | 61.3 | 28.7 | inactive |
| Or2ag1b | 2 | 120 | 58.3 | active |
| Or2ag1b | 3 | 52.2 | 21.4 | inactive |
| Bricd5 | 1 | 89.6 | 66.5 | inactive |
| Bricd5 | 2 | 113 | 93.4 | inactive |
| Bricd5 | 3 | 41.6 | 41.4 | inactive |
| Nudt2 | 1 | 64.3 | 62.8 | inactive |
| Nudt2 | 2 | 24.4 | 45.5 | inactive |
| Nudt2 | 3 | 108 | 55.6 | inactive |
| Tmem53 | 1 | 84 | 72.8 | inactive |
| Tmem53 | 2 | 68.3 | 73.3 | inactive |
| Tmem53 | 3 | 68.2 | 67.3 | inactive |
| Th | 1 | 48.7 | 42 | inactive |
| Th | 2 | 63.8 | 86 | inactive |
| Th | 3 | 116 | 79 | inactive |
| Krt73 | 1 | 41.5 | 51.1 | inactive |
| Krt73 | 2 | 67 | 71.3 | inactive |
| Krt73 | 3 | 47.2 | 58.5 | inactive |
| Tm2d3 | 1 | 94.3 | 80.2 | inactive |
| Tm2d3 | 2 | 91.9 | 61.4 | inactive |
| Tm2d3 | 3 | 89.2 | 64.3 | inactive |
| Tbca | 1 | 47.6 | 74.7 | inactive |
| Tbca | 2 | 76.7 | 112 | inactive |
| Tbca | 3 | 147 | 111 | active |
